{"source": "patent US6903077", "about": "“Methods and products for delivering nucleic acids” (University of Vermont and State Agricultural College)", "key": {"[1]": {"target": "T1, GST-Z2 (RIP60 zinc fingers 6-8 plus part of PRR, GST-Z2-P12) (Homo sapiens) (UniProt Q9BWE0)", "T1 sequence": "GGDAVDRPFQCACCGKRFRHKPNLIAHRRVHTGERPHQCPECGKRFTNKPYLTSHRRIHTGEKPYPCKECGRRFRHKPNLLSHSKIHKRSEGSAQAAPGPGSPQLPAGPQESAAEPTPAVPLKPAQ", "experiment": "SELEX", "details": "purified recombinant protein, protein details: GST N-terminal"}, "[2]": {"target": "T2, GST-Z3 (RIP60 zinc fingers 9-15) (Homo sapiens) (UniProt Q9BWE0)", "T2 sequence": "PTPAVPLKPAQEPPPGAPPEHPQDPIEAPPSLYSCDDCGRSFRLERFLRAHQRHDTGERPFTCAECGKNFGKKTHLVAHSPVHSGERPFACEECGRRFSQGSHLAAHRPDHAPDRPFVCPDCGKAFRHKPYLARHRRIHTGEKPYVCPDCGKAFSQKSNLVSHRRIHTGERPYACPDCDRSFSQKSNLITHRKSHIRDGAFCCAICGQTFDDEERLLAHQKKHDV", "experiment": "competition with a labelled probe", "details": "competes at 1000-fold excess; purified recombinant protein; protein details: GST N-terminal"}, "[3]": {"target": "T3, RIP60 full-length (HA-Z123) (Homo sapiens) (UniProt Q9BWE0)", "T3 sequence": "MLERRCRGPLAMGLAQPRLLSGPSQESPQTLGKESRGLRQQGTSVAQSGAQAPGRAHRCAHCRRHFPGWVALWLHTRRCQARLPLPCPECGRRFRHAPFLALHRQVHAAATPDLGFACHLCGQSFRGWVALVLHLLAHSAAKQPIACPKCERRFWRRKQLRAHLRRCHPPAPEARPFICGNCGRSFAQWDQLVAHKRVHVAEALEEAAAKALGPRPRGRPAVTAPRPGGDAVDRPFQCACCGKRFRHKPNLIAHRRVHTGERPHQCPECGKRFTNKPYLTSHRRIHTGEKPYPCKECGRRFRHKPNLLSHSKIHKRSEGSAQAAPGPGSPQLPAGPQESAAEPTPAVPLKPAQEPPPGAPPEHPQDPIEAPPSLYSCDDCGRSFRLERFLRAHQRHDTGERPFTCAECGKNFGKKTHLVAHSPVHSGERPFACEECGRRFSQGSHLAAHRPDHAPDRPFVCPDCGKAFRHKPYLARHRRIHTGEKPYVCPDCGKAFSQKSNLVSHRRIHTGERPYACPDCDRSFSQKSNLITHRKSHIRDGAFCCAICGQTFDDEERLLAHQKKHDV", "experiment": "competition with a labelled probe", "details": "no competition at 1000-fold excess; protein in an extract; protein details: HA, nuclear extract of transfected NIH 3T3 cells"}, "[4]": {"target": "T4, GST-Z1 (RIP60 zinc fingers 1-5) (Homo sapiens) (UniProt Q9BWE0)", "T4 sequence": "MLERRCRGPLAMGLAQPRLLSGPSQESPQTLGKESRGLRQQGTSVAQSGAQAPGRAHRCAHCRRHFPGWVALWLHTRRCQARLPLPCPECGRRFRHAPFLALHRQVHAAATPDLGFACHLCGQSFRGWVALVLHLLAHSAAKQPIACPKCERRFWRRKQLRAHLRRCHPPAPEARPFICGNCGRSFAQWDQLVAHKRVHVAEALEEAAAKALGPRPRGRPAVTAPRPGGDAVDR", "experiment": "competition with a labelled probe", "details": "purified recombinant protein, protein details: GST N-terminal"}, "[5]": {"target": "T5, GST-RIP60 (GST-Z123) (Homo sapiens) (UniProt Q9BWE0)", "T5 sequence": "T3 sequence", "experiment": "competition with a labelled probe", "details": "USR competes for binding to DSR; purified recombinant protein; protein details: GST N-terminal"}, "GST-Z23 (Homo sapiens) [6]": {"target": "T6, GST-Z23 (Homo sapiens) (UniProt Q9BWE0)", "T6 sequence": "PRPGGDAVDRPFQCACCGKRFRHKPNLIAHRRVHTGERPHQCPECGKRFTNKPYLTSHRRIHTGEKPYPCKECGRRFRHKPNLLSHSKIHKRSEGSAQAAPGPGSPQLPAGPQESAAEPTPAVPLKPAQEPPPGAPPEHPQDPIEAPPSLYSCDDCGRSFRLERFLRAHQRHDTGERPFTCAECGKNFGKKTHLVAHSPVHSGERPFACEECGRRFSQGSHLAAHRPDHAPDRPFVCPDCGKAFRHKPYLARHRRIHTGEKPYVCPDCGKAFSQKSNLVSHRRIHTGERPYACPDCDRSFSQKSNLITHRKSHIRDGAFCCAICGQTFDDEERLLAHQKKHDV", "experiment": "competition with a labelled probe", "details": "USR competes; purified recombinant protein; protein details: GST N-terminal"}, "[7]": {"target": "T7, RIP60 phosphorylated by casein kinase II (Homo sapiens) (UniProt Q9BWE0)", "T7 sequence": "T3 sequence", "experiment": "EMSA", "details": "less, if any, complex after CKII phosphorylation; purified native protein; protein details: CKII-phosphorylated in vitro; label: 32P"}, "[8]": {"target": "T5, GST-RIP60 (GST-Z123) (Homo sapiens)", "experiment": "EMSA", "details": "ZnCl2; purified recombinant protein; protein details: GST N-terminal; label: 32P"}, "[9]": {"target": "T8, GST-Z2deltaP (Homo sapiens) (UniProt Q9BWE0)", "T8 sequence": "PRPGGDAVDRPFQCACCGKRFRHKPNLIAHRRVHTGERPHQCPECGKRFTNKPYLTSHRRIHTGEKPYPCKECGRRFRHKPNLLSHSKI", "experiment": "EMSA", "details": "specific but weak; no multimers; purified recombinant protein; protein details: GST N-terminal; label: 32P"}, "GST-Z23 (Homo sapiens) [10]": {"target": "T6, GST-Z23 (Homo sapiens)", "experiment": "EMSA", "details": "specific; purified recombinant protein; protein details: GST N-terminal; label: 32P"}, "[11]": {"target": "T9, RIP60 native from HeLa nuclear extract (Homo sapiens) (UniProt Q9BWE0)", "T9 sequence": "T3 sequence", "experiment": "EMSA", "details": "unphosphorylated; purified native protein; label: 32P"}, "[12]": {"target": "T2, GST-Z3 (RIP60 zinc fingers 9-15) (Homo sapiens)", "experiment": "EMSA", "details": "non-specific; eliminated by 1000-fold excess of all competitors; purified recombinant protein; protein details: GST N-terminal; label: 32P"}, "[13]": {"target": "T3, RIP60 full-length (HA-Z123) (Homo sapiens)", "experiment": "EMSA", "details": "protein in an extract; protein details: HA, nuclear extract of transfected NIH 3T3 cells; label: 32P"}, "[14]": {"target": "T1, GST-Z2 (RIP60 zinc fingers 6-8 plus part of PRR, GST-Z2-P12) (Homo sapiens)", "experiment": "competition with a labelled probe", "details": "no competition at 1000-fold excess; purified recombinant protein; protein details: GST N-terminal"}}, "note": "For some assays here: A weaker result is weaker than the reference pair of the same experiment. Where a protein sequence is shown, tags need not be part of it. For some assays here: For at least one entry, the source does not settle the construct or the ends of the probe. For some assays here: No signal at the amounts used counts as a negative. For some assays here: Results from cells or extracts need not show a direct contact."}
{"sequence": "AATTTACCGTTTCTAT (double strand) [Z2 selected 52]", "values": [{"measurement": "selection result", "setting": "[1]; 3 rounds, 16 bp random", "value": "selected"}]}
{"sequence": "CCTTCCTTCTTATTCA (double strand) [Z2 selected 53]", "values": [{"measurement": "selection result", "setting": "[1]", "value": "selected"}]}
{"sequence": "CTATTACTGTTTTCTG (double strand) [Z2 selected 64]", "values": [{"measurement": "selection result", "setting": "[1]", "value": "selected"}]}
{"sequence": "CTGTTTTTTTTAGTATTAAGC (double strand) [Py-AT (OCH37/OCH38)]", "values": [{"measurement": "binding result", "setting": "[2]", "value": "binds"}, {"measurement": "binding result", "setting": "[3]", "value": "no binding"}, {"measurement": "binding result", "setting": "[4]; slight competition at 1000-fold excess", "value": "binds more weakly"}]}
{"sequence": "GATCCGGGAAGGCGGGCGCTGGGGGCGCTGCGGCGCTGCGCTCCACCT / GATCTAGGTGGAGCGCAGCGCCGCAGCGCCCCCAGCGCCCGCCTTCCCG [IBF (OCH13/OCH14)]", "values": [{"measurement": "binding result", "setting": "[2]", "value": "binds"}, {"measurement": "binding result", "setting": "[3]", "value": "no binding"}]}
{"sequence": "GATCTTAACAGTAATAATAAATATCT / GATCAGATATTTATTATTACTGTTAA [USR (OCH39/OCH40)]", "values": [{"measurement": "binding result", "setting": "[5]", "value": "binds"}, {"measurement": "binding result", "setting": "GST-Z23 (Homo sapiens) [6]", "value": "binds"}]}
{"sequence": "GATCTTTTATTATTATTATTAGTTCG / GATCCGAACTAATAATAATAATAAAA [DSR (OCH7/OCH8)]", "values": [{"measurement": "binding result", "setting": "[7]", "value": "binds more weakly"}, {"measurement": "binding result", "setting": "[8]", "value": "binds"}, {"measurement": "binding result", "setting": "[9]", "value": "binds more weakly"}, {"measurement": "binding result", "setting": "GST-Z23 (Homo sapiens) [10]", "value": "binds"}, {"measurement": "binding result", "setting": "[11]", "value": "binds"}, {"measurement": "binding result", "setting": "[12]", "value": "binds more weakly"}, {"measurement": "binding result", "setting": "[13]", "value": "binds"}]}
{"sequence": "GATGAATTTTTTTTTA (double strand) [Z2 selected 62]", "values": [{"measurement": "selection result", "setting": "[1]", "value": "selected"}]}
{"sequence": "GCATAATAAAAAAAATTAGT / ACTAATTTTTTTTATTTATGC [SV-AT (OCH35/OCH36)]", "values": [{"measurement": "binding result", "setting": "[2]", "value": "binds"}, {"measurement": "binding result", "setting": "[14]", "value": "no binding"}, {"measurement": "binding result", "setting": "[4]; not significantly competing", "value": "no binding"}]}
{"sequence": "TACTTTATGGTTAACG (double strand) [Z2 selected 66]", "values": [{"measurement": "selection result", "setting": "[1]", "value": "selected"}]}
{"sequence": "TACTTTATGGTTAAGC (double strand) [Z2 selected 63]", "values": [{"measurement": "selection result", "setting": "[1]", "value": "selected"}]}
{"sequence": "TATTATTTTATGTTGA (double strand) [Z2 selected 60]", "values": [{"measurement": "selection result", "setting": "[1]", "value": "selected"}]}
{"sequence": "TATTTTATTTATTAAT (double strand) [Z2 selected 58]", "values": [{"measurement": "selection result", "setting": "[1]", "value": "selected"}]}
{"sequence": "TCTAATTTTCTTTTTA (double strand) [Z2 selected 56]", "values": [{"measurement": "selection result", "setting": "[1]", "value": "selected"}]}
{"sequence": "TGTTTTGATTTTTTAT (double strand) [Z2 selected 57]", "values": [{"measurement": "selection result", "setting": "[1]", "value": "selected"}]}
{"sequence": "TTCATTTGATTTTATT (double strand) [Z2 selected 54]", "values": [{"measurement": "selection result", "setting": "[1]", "value": "selected"}]}
{"sequence": "TTCTTTTTTCATAAAT (double strand) [Z2 selected 59]", "values": [{"measurement": "selection result", "setting": "[1]", "value": "selected"}]}
{"sequence": "TTTTATAATTCCTATT (double strand) [Z2 selected 55]", "values": [{"measurement": "selection result", "setting": "[1]", "value": "selected"}]}
{"sequence": "TTTTTAAATTTTTTTA (double strand) [Z2 selected 61]", "values": [{"measurement": "selection result", "setting": "[1]", "value": "selected"}]}
{"sequence": "TTTTTTTAGTTTCTTA (double strand) [Z2 selected 65]", "values": [{"measurement": "selection result", "setting": "[1]", "value": "selected"}]}
